In patent US10166271B2, “Methods for promoting hair growth” (THE REGENTS OF THE UNIVERSITY OF CALIFORNIA, priority 2006, dated 2019):
Where “and” joins values, the source holds several entries; their conditions need not be identical. Equal entries are not always repeated.

Tested on: CRF-OE mice
Experiment: Adrenal gland, abdominal fat and body weight at sacrifice in female CRF-OE mice after sc injection
Format: in vivo
Details: for AbdFat (abdominal fat weight), Adjusted/20 g Wt / Adren (adrenal glands weight), Adjusted/20 g Wt / Wt. @ euth (weight on the day of euthanasia): female CRF-OE mice, individual mice and Ave., listed as AB

## (cyclo 30-33)[DPhe12, Nle21,38, Cml27,40, Glu30, Lys33]Ac-h/rCRF9-41 [Astressin B]
CRF-OE mice, at the times of observation
  Effect on adrenal gland and abdominal fat weight compared with saline: changed neither adrenal gland nor abdominal fat weight compared with saline
7 days post last injection
  AbdFat (abdominal fat weight), Adjusted/20 g Wt: 1.5 g (2×) and 1.4 g (2×) and 1.9 g and 1.2 g
  Adren (adrenal glands weight), Adjusted/20 g Wt: 6.6 mg (2×) and 5.4 mg and 5.7 mg and 4.7 mg and 5.8 mg
  Wt. @ euth (weight on the day of euthanasia): 35.6 gm (3×) and 35.5 gm and 40.3 gm and 36.52 gm
14 days post last injection
  AbdFat (abdominal fat weight), Adjusted/20 g Wt: 1.3 g (3×) and 1.2 g (3×)
  Adren (adrenal glands weight), Adjusted/20 g Wt: 6.3 mg and 5.7 mg and 6.8 mg (2×) and 7.4 mg and 6.6 mg
  Wt. @ euth (weight on the day of euthanasia): 37.6 gm and 38 gm and 36.1 gm (2×) and 33.3 gm and 36.22 gm
